Data reported in paper doi:10.1101/2021.06.15.448540.
These are yes or no findings as the source states them, for the method shown. Some results given as binding are weak or reduced against the parent protein; the word gives no strength.

Target: T1, FhuCB subcomplex (wild type; membrane subunit FhuB and ATPase FhuC) (Escherichia coli) (UniProt P07821+P06972)
T1 sequence (chain, His-tag labeled with the red-tris-NTA 2nd generation dye (in the MST)) 1: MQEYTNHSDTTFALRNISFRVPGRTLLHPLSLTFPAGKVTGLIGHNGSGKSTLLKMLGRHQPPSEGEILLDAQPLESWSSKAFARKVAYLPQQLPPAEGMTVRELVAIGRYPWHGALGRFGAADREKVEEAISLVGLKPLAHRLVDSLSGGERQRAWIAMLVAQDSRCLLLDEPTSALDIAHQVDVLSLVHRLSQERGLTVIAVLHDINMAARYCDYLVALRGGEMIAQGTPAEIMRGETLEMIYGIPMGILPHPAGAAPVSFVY
T1 sequence (chain, His-tag labeled with the red-tris-NTA 2nd generation dye (in the MST)) 2: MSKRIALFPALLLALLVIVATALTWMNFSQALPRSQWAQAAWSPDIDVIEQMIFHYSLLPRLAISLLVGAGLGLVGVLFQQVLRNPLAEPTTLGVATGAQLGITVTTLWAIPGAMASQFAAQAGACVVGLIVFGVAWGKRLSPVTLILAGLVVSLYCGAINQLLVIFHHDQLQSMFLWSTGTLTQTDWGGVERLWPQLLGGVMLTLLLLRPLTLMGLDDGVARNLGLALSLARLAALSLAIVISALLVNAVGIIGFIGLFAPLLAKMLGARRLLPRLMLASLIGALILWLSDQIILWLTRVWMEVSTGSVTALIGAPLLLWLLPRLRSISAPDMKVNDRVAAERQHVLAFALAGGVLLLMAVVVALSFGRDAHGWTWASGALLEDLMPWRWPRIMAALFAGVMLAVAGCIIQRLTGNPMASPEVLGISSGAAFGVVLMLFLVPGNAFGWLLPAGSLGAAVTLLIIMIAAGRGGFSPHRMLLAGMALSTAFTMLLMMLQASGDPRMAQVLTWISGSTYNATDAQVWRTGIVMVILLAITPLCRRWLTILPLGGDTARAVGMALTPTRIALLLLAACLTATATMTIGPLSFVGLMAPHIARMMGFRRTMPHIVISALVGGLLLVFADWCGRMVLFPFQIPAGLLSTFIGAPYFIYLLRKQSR
Assay: MST

B1: FhuD (separately expressed periplasmic substrate-binding protein) (protein, UniProt P07822 31-296)
chain: AAIDPNRIVALEWLPVELLLALGIVPYGVADTINYRLWVSEPPLPDSVIDVGLRTEPNLELLTEMKPSFMVWSAGYGPSPEMLARIAPGRGFNFSDGKQPLAMARKSLTEMADLLNLQSAAETHLAQYEDFIRSMKPRFVKRGARPLLLTTLIDPRHMLVFGPNSLFQEILDEYGIPNAWQGETNFWGSTAVSIDRLAAYKDVDVLCFDHDNSKDMDALMATPLWQAMPFVRAGRFQRVPAVWFYGATLSAMHFVRVLDNAIGGKA
**Q.** Which binding does the source give for B1 here?
**A.** Its binding is “binds”.
